PubChem BioAssay AID504791 | Drosophila RNAi Screening Center, 2011
Purpose: 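Factors in Argonaute-based small RNA production and activity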 (primary screen). Cells: Drosophila S2-derived reporter cells. Reagent: long dsRNA against Drosophila genes, about 150-250 ng dsRNA per well (siRNA assay); about 80-120 ng (miRNA assay). Time to read-out: about 5 days (siRNA assay); about 4 days (miRNA assay). Conditions: copper sulfate induction of reporters: 25 µM (siRNA assay); 200 mM stated (miRNA assay), 1-2 days before reading. Read-out: 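Per-well ratio of Renilla over firefly light, expressed relative to that plate's average ratio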. Rule for the call: 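First-pass picks had plate-scaled ratios over 1.5 for the siRNA assay, over 1.6 for the miRNA assay, or under 0.6; two distinct dsRNAs had to score alike on retest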.
The screen tested about 23,000 reagents; shown is a random part of those with a known target gene and a result. Of all reagents, 199 (0.86%) were called active. 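Plate-scaled ratios behind the calls are not deposited; printed light signals are raw; many rows marked increased or decreased are still called inactive.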 A plus sign joins genes that one reagent is predicted to hit. Not stated in the record: the direction of the score.

no.	Target gene	amplicon	stable siRNA reporter change	miRNA reporter change	stable assay Renilla, run 1 (luminescence)	stable assay firefly, run 1 (luminescence)	call
1	CG16727	DRSC15139			6799	2.63e5	inactive
2	CG16898	DRSC06635			6176	2.89e5	inactive
3	SERCA	DRSC04600			22015	9.82e5	inactive
4	Prosbeta7	DRSC12186	reporter ratio raised past the hit cutoff	reporter ratio raised past the hit cutoff	9558	2.60e5	active
5	CG33635	DRSC00006			4292	3.76e5	inactive
6	RpL36A	DRSC03055			8130	3.63e5	inactive
7	CG31959 (retired record)	DRSC22912			2364	2.50e5	inactive
8	sev	DRSC20372			5008	3.60e5	inactive
9	Dhc62B	DRSC08655			5351	3.59e5	inactive
10	TTLL3A	DRSC02143			9611	4.93e5	inactive
11	Amy-d + Amy-p	DRSC21242			5524	4.02e5	inactive
12	witty	DRSC02378			6279	3.65e5	inactive
13	witty	DRSC21650			9097	5.47e5	inactive
14	GV1	DRSC08228			6152	3.37e5	inactive
15	CG7900	DRSC16336			4003	3.35e5	inactive
16	CG7900	DRSC21343			10119	5.74e5	inactive
17	TpnC41C	DRSC04916			6459	3.70e5	inactive
18	MFS1	DRSC04115			6475	3.61e5	inactive
19	l(2)k05911	DRSC02523			3568	3.69e5	inactive
20	Prosalpha3	DRSC04644			8175	3.18e5	inactive
21	CG34302	DRSC12751			6591	3.33e5	inactive
22	aru	DRSC00802			7063	4.27e5	inactive
23	aru	DRSC22019			7757	5.03e5	inactive
24	PrBP	DRSC03189	reporter ratio raised past the hit cutoff		15274	4.32e5	inactive
25	CG14687	DRSC14910			4975	4.58e5	inactive
26	CG17110	DRSC15173			6523	3.11e5	inactive
27	l(3)62Be (retired record)	DRSC08231			12007	4.99e5	inactive
28	CG33309	DRSC01421			5031	3.55e5	inactive
29	CG5823	DRSC15881			7291	3.07e5	inactive
30	CG9008	DRSC01889			6442	1.16e6	inactive
31	CG1143	DRSC08188			5348	3.41e5	inactive
32	CG15464 (retired record)	DRSC18047			4560	4.58e5	inactive
33	CG15464 (retired record)	DRSC22086			9800	6.34e5	inactive
34	CG10702	DRSC02097			2.23e5	1.02e6	inactive
35	Rassf	DRSC15612			8894	3.03e5	inactive
36	Rassf	DRSC28891		reporter ratio raised past the hit cutoff			inactive
37	CG42588	DRSC09820			5523	3.84e5	inactive
38	CG42588	DRSC22121			9933	6.05e5	inactive
39	CG43322	DRSC02280			7761	4.21e5	inactive
40	wrapper	DRSC04723			8310	6.78e5	inactive
41	CG13615	DRSC14618			9146	3.20e5	inactive
42	CG9970	DRSC08644			6162	3.35e5	inactive
43	Ir52c	DRSC21801			10248	5.44e5	inactive
44	AIMP2	DRSC09877			9185	3.57e5	inactive
45	Roc1b + Cdc5	DRSC08687			5978	3.51e5	inactive
46	CG3740	DRSC18508			7123	3.46e5	inactive
47	CG12825	DRSC06174			3992	4.55e5	inactive
48	mbm + CG11555	DRSC00315			7339	4.13e5	inactive
49	CG13917	DRSC08386			3511	4.10e5	inactive
50	Mayo	DRSC14300			6367	4.07e5	inactive
51	wcy	DRSC20132			9665	4.29e5	inactive
52	CG13581	DRSC04216			5891	3.32e5	inactive
53	sel	DRSC06232			5451	4.66e5	inactive
54	SF1	DRSC16844			5879	5.23e5	inactive
55	Poc1	DRSC09713			9949	4.70e5	inactive
56	CG33272	DRSC09116			4551	3.38e5	inactive
57	CG13040	DRSC09921			7666	4.64e5	inactive

As entered above:
Entry of CG15464 (retired record) [DRSC22086] in “call”: inactive
Entry for witty [DRSC21650] under “call”: inactive
Result of wrapper [DRSC04723] under “call”: inactive
l(3)62Be (retired record) [DRSC08231], call: inactive
Result of CG33635 [DRSC00006] under “call”: inactive
Result of CG16727 [DRSC15139] in “stable assay Renilla, run 1 (luminescence)”: 6799
